# Data from PubChem BioAssay AID493014 (National Center for Advancing Translational Sciences (NCATS), 2011).
# In all, about 340,000 compounds went through this assay and about 170 (0.05%) were called active. Inconclusive means that the source gave no clear call. Such entries were picked first, then a sample of the others. The call rests on the fitted dose curve; in most records, active means well fitted inhibition curve with a large enough effect in the signal ratio, with a control signal flat (not every such curve was filed as active); inconclusive means small, poorly fitted or top-dose-only effect, or effect the other way, or a change in a side signal; inactive means flat fitted curve, though single readings scatter; the % refers to the signal ratio. Where the call is inconclusive, the potency comes from a doubtful curve fit.
# Test: qHTS Assay to Find Inhibitors of Chronic Active B-Cell Receptor Signaling;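 on activity change, negative = inhibition: plate controls were basal doxycycline-induced cells for no effect and cells given 10 µM MG132 for full effect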
# Conditions: ABC-DLBCL IkBa-CBG/CBR reporter, luminescence ratio (green luciferase fused to IkBa over red control in TMD8 lymphoma cells), 4 h; activity change, negative = inhibition: at 46.1 µM (top of the series)
# How it was run: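 Cell line TMD8 (human ABC DLBCL), stably expressing tet-inducible CBG68-IkBa fusion and CBR; IMDM/0.5% FBS; cpd up to 46 uM; dox induction, 4 h, 37C/5% CO2; dual luminescence; green/red ratio; MG132 control.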
# Potency means the concentration at half of the fitted maximal effect.
SMILES,"activity change, negative = inhibition",Potency
CCCCCCCCCCn1c2c(c(=N)c3c1CCC3)CCC2,inconclusive: 1.79%,–
CC1=CC(=O)C=C(C)C1=NOS(=O)(=O)c1ccccc1,–,"inconclusive: 20.6 µM [rising, single point]"
Cc1ccc(NC(=O)COC(=O)c2cc(Cl)ccc2[N+](=O)[O-])c(C)c1,inconclusive: -6.14%,–
O=C(COc1cccc2c1CCNC2=O)Nc1cccc(F)c1,–,"inconclusive: 29.1 µM [falling, single point]"
CCOC(=O)c1c(C)[nH]c(C2=NNC(=NC(C)COC)SC2)c1C (centres undefined),inconclusive: 1.48%,–
COC(=O)c1ccc2nc(NC(=O)CN3C(=O)CCC3=O)sc2c1,–,"inconclusive: 22.4 µM [falling, single point]"
COc1ccc(-c2cccc(NS(=O)(=O)c3cc([N+](=O)[O-])ccc3C)c2)nn1,inconclusive: 0.213%,–
O=c1[nH]c(SCc2ccc(Cl)cc2)nc2[nH]ncc12,inactive: -7.26%,–
CC(C)c1nnc(NC(=O)c2nc(S(=O)(=O)Cc3ccc(F)cc3)ncc2Cl)s1,inconclusive: 11.6%,–
COC(=O)c1ccc(CSc2nc3ccccc3c(=O)n2N)cc1,–,"inconclusive: 11.2 µM [falling, partial curve]"
CCOC(=O)c1c(N2C(=O)Nc3ccccc3N2O)n[nH]c1-c1cccc(OC)c1,inconclusive: 16.2%,–
CCc1ccc(NC(=O)[C@H](C)NC(=O)C2CCN(C(=O)[C@@H](NC(=O)OC(C)(C)C)C(C)C)CC2)cc1,inactive: 0.604%,–
CCOCCn1c(COc2ccc(C)cc2)nc2ccccc21,inactive: 0.314%,–
CN(/N=C/c1ccc2c(c1)OCO2)c1ccccc1,inconclusive: 3.37%,–
BrC(=C\c1ccccc1)/C=N/N1CCN(Cc2ccccc2)CC1,inconclusive: -25.8%,–
CN(CCc1ccccc1)C(=O)c1cccc(NC(=O)Cc2cccc([N+](=O)[O-])c2)c1,inactive: 0.164%,–
CCOc1ccccc1-c1nc(-c2cc3ccc(C)cc3[nH]c2=O)no1,–,"inconclusive: 0.184 µM [falling, full curve, poor fit]"
CCN(CC)c1ccc(/C=C2/C(=O)N(c3ccc([N+](=O)[O-])cc3)N=C2N2CCOCC2)cc1,inconclusive: 3.34%,–
Cc1nnc(NCCc2ccccc2)[nH]c1=O,inactive: -0.99%,–
COC(=O)[C@@]12OC[C@]34[C@H]([C@@H](O)[C@@H]1O)[C@@]1(C)C(=O)C(O[C@@H]5OC(CO)[C@@H](O)[C@@H](O)[C@@H]5O)=C[C@@H](C)[C@@H]1C[C@H]3OC(=O)[C@H](OC(=O)/C=C(\C)C(C)(C)OC(C)=O)[C@@H]24 (some centres undefined),–,"inconclusive: 2.59 µM [falling, partial curve]"
Cc1cc(Cl)c2oc(C(=O)N(C)Cc3cc(C)[nH]n3)c(C)c2c1,–,"inconclusive: 7.08 µM [falling, partial curve]"
COc1ccc(-n2c(SCC(=O)N3CCCCC3)nc(O)cc2=O)cc1,inactive: 1.26%,–
CCCCCc1cc(=O)oc2c(C(CCN(CC)CC)c3ccc(N(C)C)cc3)c(OC)cc(OC)c12 (centres undefined),–,"inconclusive: 20 µM [falling, single point]"
COc1ccc(-c2n[nH]c(=S)n2-c2ccc3c(c2)OCCO3)cc1,inconclusive: -0.582%,–
COc1ccc(C)cc1NC(=O)c1cc2c(s1)CCC2,inconclusive: 0.485%,–
c1ccc2c(c1)nc(N1CCOCC1)c1nnnn12,–,"inconclusive: 2.31 µM [falling, full curve]"
O=C(c1ccccc1O)N1N=C(C(F)(F)F)CC1(O)c1ccc([N+](=O)[O-])cc1 (centres undefined),–,"inconclusive: 35.5 µM [falling, partial curve, poor fit]"

# Full records as entered above:
# `CN(CCc1ccccc1)C(=O)c1cccc(NC(=O)Cc2cccc([N+](=O)[O-])c2)c1` is listed as activity change, negative = inhibition: inactive: 0.164%
# `CC(C)c1nnc(NC(=O)c2nc(S(=O)(=O)Cc3ccc(F)cc3)ncc2Cl)s1` is listed as activity change, negative = inhibition: inconclusive: 11.6%
# `Cc1cc(Cl)c2oc(C(=O)N(C)Cc3cc(C)[nH]n3)c(C)c2c1` is listed as Potency: inconclusive: 7.08 µM [falling, partial curve]
# `BrC(=C\c1ccccc1)/C=N/N1CCN(Cc2ccccc2)CC1` is listed as activity change, negative = inhibition: inconclusive: -25.8%

# Further structures:

SMILES,"activity change, negative = inhibition",Potency
CC(=O)Nc1ccc(Sc2ncccc2C(=O)Nc2ccc(OC(F)(F)F)cc2)cn1,–,"inconclusive: 7.31 µM [falling, partial curve]"
Cc1ccc(Cn2nc(C)c(NC(=O)c3cc(C)no3)c2C)cc1,inconclusive: -7.13%,–
O=C(O)CCc1ccc(-c2ccc(Br)cc2)o1,inconclusive: -16.6%,–
COc1ccc(C(=O)Nc2nc(N)n(-c3ccccc3)n2)cc1OC,inconclusive: -0.894%,–
CC(=O)N(Cc1cccnc1)c1nc2c(C)cc(C)cc2s1,inactive: -9.8%,–
CCOC(=O)C1=C(N)Oc2ccc3ccccc3c2C1c1ccc(O)c(OC)c1 (centres undefined),–,"inconclusive: 22.4 µM [cytotoxic, single point]"
CNC(=O)C1CC(=O)N(CCCc2ccccc2)C(=Nc2ccccc2)S1 (centres undefined),inconclusive: -16.3%,–
Cc1cccc(C(=O)NCC(=O)OCCOc2ccccc2Cl)c1,inconclusive: 11.7%,–
COc1ccc(OC(=O)NCCc2ccccc2)cc1,inconclusive: -24.3%,–
Fc1cccc(Cn2ccc(-c3ccc4c(c3)OCO4)n2)c1,inactive: 8.47%,–
COc1cccc(CSc2nc3ccccc3[nH]2)c1,inactive: -7.62%,–
COc1ccc(-n2nnnc2SCC(=O)c2cccc(OC)c2)cc1,–,"inconclusive: 16.4 µM [falling, single point]"
O=C(O)c1ccc(/C=N/n2cc(-c3ccccc3)[nH]c2=S)cc1,–,"inconclusive: 20 µM [falling, single point]"
CN(C)CC(c1ccccc1)c1ccccc1,inconclusive: -0.038%,–
Oc1cc(Nc2ccncc2)cc2cccnc12,–,"inconclusive: 18.4 µM [falling, partial curve, poor fit]"
O=C(NCc1ccncc1)c1cc(-c2ccc(Cl)cc2)oc1C(F)(F)F,inconclusive: -20.4%,–
CCOC(=O)N1CCC(NC(=O)c2ccc3c(c2)N(Cc2ccccc2)CCS3)CC1,inconclusive: -21%,–
Cn1c(=O)n(C)c2cc(N3CCOCC3)c(NC(=O)c3cccc(Cl)c3)cc21,inconclusive: -1.54%,–
CC(=O)N1CCN(S(=O)(=O)c2c(F)cc(F)c(Cl)c2F)CC1,inconclusive: 8.69%,–
COc1cc(/C=C\C(=O)OCn2nnc3ccccc3c2=O)cc(OC)c1OC,–,"inconclusive: 12.6 µM [falling, partial curve, poor fit]"
COc1ccc2[nH]c(=O)c(CN(c3ccc(C)c(C)c3)S(C)(=O)=O)cc2c1,–,"inconclusive: 4.47 µM [falling, partial curve, poor fit]"
N#Cc1ccc(-c2ccc3c(c2)OCO3)nc1SCC(=O)OCc1ccccc1,–,"inconclusive: 0.184 µM [rising, partial curve, poor fit]"
CC(C)OP(=O)(OC(C)C)C(Nc1ccccc1)c1cccc2c1OCO2 (centres undefined),inconclusive: -7.96%,–
CCCn1c(SCC(=O)c2cc(C)ccc2C)n[nH]c1=O,–,"inconclusive: 29.1 µM [falling, single point]"
Fc1ccc(-c2nc3c(-c4ccc(Cl)cc4)cnn3cc2CCN2CCOCC2)cc1,inactive: 4.67%,–
Cc1ccc(-n2nc(C)c3c(C)cc(=O)[nH]c32)cc1,inconclusive: 24.5%,–
CCOc1cccc(CN2CCCC(C(=O)Nc3cccc(-n4cccn4)c3)C2)c1 (centres undefined),inconclusive: -13.2%,–

SMILES,"activity change, negative = inhibition",Potency
Cc1ccc(-c2cc(-c3ccco3)c3c(N)c(C(=O)NN)oc3n2)cc1,inactive: 6.51%,–
COc1cccc(NC(=O)CCCn2c(=S)[nH]c3ccccc3c2=O)c1,–,"inconclusive: 29.1 µM [falling, single point]"
Clc1ccc(C2=NNC(=NCc3ccc4c(c3)OCO4)SC2)cc1,inactive: -1.36%,–
COCCN1C=C2C(=O)C(C)(OC(=O)c3cccs3)C(=O)C=C2C=C1CCCC(=O)OC (centres undefined),inconclusive: 1.79%,–
Cc1ccc(C(=O)c2nocc2C(=O)c2cccs2)cc1,inconclusive: 7.45%,–
CCc1nnc(NS(=O)(=O)c2ccc(NC(=S)NC(=O)/C=C/c3ccccc3)cc2)s1,inconclusive: -5.69%,–
O=C(CSc1nncn1-c1cccnc1)N1CCOCC1,inconclusive: -0.0197%,–
COc1ccc(CC(=O)NC(C)c2nnc(SCCC(=O)Nc3ccccc3)n2C)cc1 (centres undefined),inconclusive: -3.12%,–
Cc1cccc(NC2=C(C#N)C(=O)NC3(CCCC3)S2)c1,inconclusive: -22.1%,–
O=C(Nc1ccc(O)cc1)c1ccc(NC(=O)c2cccs2)cc1,inactive: 12.6%,–
COC(=O)CCCC(=O)Nc1ccc(Cl)c(Cl)c1,inconclusive: 11.3%,–
CCc1ccc(NC(=O)C2=CC=CN3CCS(=O)(=O)N=C23)cc1,inconclusive: 2.04%,–
Cc1cc(C(=O)Nc2c(C)nn(Cc3ccc(F)cc3)c2C)on1,inactive: -0.388%,–
CCOc1ccc2nc(SC3CC(=O)N(c4ccc(OC)cc4OC)C3=O)sc2c1 (centres undefined),inconclusive: 2.82%,–
O=C(/C=C/c1ccco1)Nc1nnc(-c2ccco2)s1,inconclusive: -29.3%,–
Cc1ccc(CNC(=O)[C@H]2C[C@@H]2[C@H](NP(=O)(c2ccccc2)c2ccccc2)c2ccccc2)o1,inconclusive: -8.75%,–
O=C1NC2(NN1c1ccccc1)C1CC3CC(C1)CC2C3 (centres undefined),inconclusive: 15.1%,–
COc1cc(OC)cc(C(=O)N[C@H](C(=O)NCc2ccccc2)C(C)C)c1,inconclusive: 2.81%,–
CCCCC(C(=O)N/N=C/c1ccccn1)C(=O)N/N=C/c1ccccn1,inactive: 9.5%,–
COc1cc(C(=O)OCCN2CCOCC2)cc(OC)c1OC,inactive: -0.244%,–
c1ccc(Cn2nnc3c(N4CCc5ccccc5C4)ncnc32)cc1,–,"inconclusive: 5.62 µM [activator, partial curve, poor fit]"
CC(C)CSc1ccc(S(=O)(=O)NCC(=O)O)cc1[N+](=O)[O-],inactive: 2.32%,–
COc1ccc(S(=O)(=O)N2CCOCC2)cc1NC(=O)c1cc2ccccc2o1,inactive: 3.66%,–
Cc1cccc(C(=O)NCC(=O)N2CCCCCCC2)c1,inactive: 0.745%,–
O=C(/C=C/c1ccccc1Cl)c1cccnc1,inconclusive: -0.75%,–
